In paper PMC7862700:
Only a part is listed here, and it is no random draw. At the low end of the ranking the order means little.

Columns and labels:
Assay in all cases: DAPPL (digital affinity profiling via proximity ligation, sequencing)
Settings in all cases: 10 mM Tris-HCl pH 7.5, 50 mM NaCl, 1 mM DTT, 4% glycerol, room temperature, 30 min; GST-TFs on glutathione beads, 16-mer random dsDNA library, 0.1% …; high values mean tight binding; double strand, one strand shown; scale: fold enrichment (6-mer frequency, TF over GST control)
[1] = target: T1, ELK1 (UniProt P19419)
T1 sequence: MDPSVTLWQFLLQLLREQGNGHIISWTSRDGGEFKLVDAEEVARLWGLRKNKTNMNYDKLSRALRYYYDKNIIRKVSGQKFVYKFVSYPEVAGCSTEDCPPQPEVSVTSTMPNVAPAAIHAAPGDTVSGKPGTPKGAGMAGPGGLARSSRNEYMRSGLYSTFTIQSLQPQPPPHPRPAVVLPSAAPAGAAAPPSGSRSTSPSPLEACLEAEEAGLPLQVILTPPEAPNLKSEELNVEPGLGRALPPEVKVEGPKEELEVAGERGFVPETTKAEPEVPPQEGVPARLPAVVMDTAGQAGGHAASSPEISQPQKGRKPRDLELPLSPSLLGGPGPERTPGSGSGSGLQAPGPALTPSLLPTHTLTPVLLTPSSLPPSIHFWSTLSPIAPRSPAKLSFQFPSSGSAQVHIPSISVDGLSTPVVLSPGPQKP

[2] = target: T2, ELK3 (UniProt P41970)
T2 sequence: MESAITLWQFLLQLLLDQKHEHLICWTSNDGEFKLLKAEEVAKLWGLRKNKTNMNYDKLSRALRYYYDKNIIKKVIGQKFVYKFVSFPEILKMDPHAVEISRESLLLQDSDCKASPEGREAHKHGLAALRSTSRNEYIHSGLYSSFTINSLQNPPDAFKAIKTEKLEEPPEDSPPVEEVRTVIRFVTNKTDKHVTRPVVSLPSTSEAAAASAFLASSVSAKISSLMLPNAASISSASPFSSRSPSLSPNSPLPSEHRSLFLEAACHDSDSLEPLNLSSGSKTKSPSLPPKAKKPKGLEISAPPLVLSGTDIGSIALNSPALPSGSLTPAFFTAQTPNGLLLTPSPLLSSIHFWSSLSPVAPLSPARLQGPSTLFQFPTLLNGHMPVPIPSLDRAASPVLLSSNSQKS

[3] = target: T3, SPIC (UniProt Q8N5J4)
T3 sequence: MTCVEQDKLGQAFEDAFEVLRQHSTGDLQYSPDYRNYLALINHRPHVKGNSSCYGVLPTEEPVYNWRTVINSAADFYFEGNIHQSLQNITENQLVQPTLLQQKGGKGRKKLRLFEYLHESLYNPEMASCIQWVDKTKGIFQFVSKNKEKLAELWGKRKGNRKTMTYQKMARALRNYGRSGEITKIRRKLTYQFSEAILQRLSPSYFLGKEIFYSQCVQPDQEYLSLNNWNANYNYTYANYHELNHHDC

[4] = target: T4, ETS2 (UniProt P15036)
T4 sequence: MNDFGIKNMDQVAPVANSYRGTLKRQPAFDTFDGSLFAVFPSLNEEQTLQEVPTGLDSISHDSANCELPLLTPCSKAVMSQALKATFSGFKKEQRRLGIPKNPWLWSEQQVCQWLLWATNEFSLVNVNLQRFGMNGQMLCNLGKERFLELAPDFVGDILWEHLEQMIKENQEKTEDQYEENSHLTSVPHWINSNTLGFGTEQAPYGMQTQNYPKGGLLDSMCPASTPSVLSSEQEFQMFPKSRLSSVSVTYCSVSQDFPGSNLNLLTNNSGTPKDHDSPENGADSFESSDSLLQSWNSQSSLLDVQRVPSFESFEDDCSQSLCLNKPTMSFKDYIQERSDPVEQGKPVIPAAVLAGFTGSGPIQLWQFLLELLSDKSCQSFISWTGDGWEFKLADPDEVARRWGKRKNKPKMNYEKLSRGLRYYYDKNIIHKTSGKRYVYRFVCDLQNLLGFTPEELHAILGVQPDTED

[5] = target: T5, ETV3 (UniProt P41162-2)
T5 sequence: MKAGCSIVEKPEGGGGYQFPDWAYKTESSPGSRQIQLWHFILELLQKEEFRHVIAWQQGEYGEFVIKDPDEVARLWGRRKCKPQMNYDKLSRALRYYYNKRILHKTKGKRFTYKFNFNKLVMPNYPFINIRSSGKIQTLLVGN

| Sequence | binding signal [1] | binding signal [2] | binding signal [3] | binding signal [4] | binding signal [5] |
| --- | --- | --- | --- | --- | --- |
| GTGCGA | 0.886 | 0.906 | 0.824 | 0.847 | 0.921 |
| CCATGA | 0.899 | 0.843 | 0.831 | 0.86 | 0.912 |
| GGATCG | 0.563 | 0.657 | 0.63 | 0.534 | 0.571 |
| AGGCCA | 0.622 | 0.683 | 0.712 | 0.653 | 0.605 |
| AGGGCG | 0.599 | 0.607 | 0.645 | 0.568 | 0.547 |
